Measured values as given in the supplement of paper PMC10077471.
Over roughly 1,900 compounds, “excess over highest single agent (ExcessHSA) synergy score, 6x6 matrix” has its median near -83; the lowest 2% begin near -370. The list shows a part of the results.

The compounds below were run on NCI-H446 (assay: excess over highest single agent (ExcessHSA) synergy score, 6x6 matrix; higher = less synergy (more negative = stronger synergy)). Conditions: 72 h; CellTiter-Glo viability.

SMILES	excess over highest single agent
Cc1ccc(Nc2cc(-c3cccc(N4C(=O)c5ccccc5C4=O)c3)ncn2)cc1NS(C)(=O)=O + Cc1sc2c(c1C)C(c1ccc(Cl)cc1)=N[C@@H](CC(=O)OC(C)(C)C)c1nnc(C)n1-2 [NCGC00250412-19]	40.6
CCC1(c2ccccc2)C(=O)NCNC1=O + Cc1sc2c(c1C)C(c1ccc(Cl)cc1)=N[C@@H](CC(=O)OC(C)(C)C)c1nnc(C)n1-2 [NCGC00250412-19]	-138
CCCCc1oc2ccc(NS(C)(=O)=O)cc2c1C(=O)c1ccc(OCCCN(CCCC)CCCC)cc1 + Cc1sc2c(c1C)C(c1ccc(Cl)cc1)=N[C@@H](CC(=O)OC(C)(C)C)c1nnc(C)n1-2 [NCGC00250412-19]	-6.2
CN1CCN(C(=O)O[C@H]2c3nccnc3C(=O)N2c2ccc(Cl)cn2)CC1 + Cc1sc2c(c1C)C(c1ccc(Cl)cc1)=N[C@@H](CC(=O)OC(C)(C)C)c1nnc(C)n1-2 [NCGC00250412-19]	45.1
Oc1c(Cl)cc(Cl)c2cccnc12 + Cc1sc2c(c1C)C(c1ccc(Cl)cc1)=N[C@@H](CC(=O)OC(C)(C)C)c1nnc(C)n1-2 [NCGC00250412-19]	-98.5
COc1cc2ncnc(Nc3cccc(Br)c3)c2cc1OC + Cc1sc2c(c1C)C(c1ccc(Cl)cc1)=N[C@@H](CC(=O)OC(C)(C)C)c1nnc(C)n1-2 [NCGC00250412-19]	-142
CC(=O)SC[C@@H](C)C(=O)N1CCC[C@H]1C(=O)N[C@@H](Cc1ccccc1)C(=O)O + Cc1sc2c(c1C)C(c1ccc(Cl)cc1)=N[C@@H](CC(=O)OC(C)(C)C)c1nnc(C)n1-2 [NCGC00250412-19]	-183
C=CC(=O)Nc1cccc(Oc2nc(Nc3ccc(N4CCN(C)CC4)cc3)ncc2Cl)c1 + Cc1sc2c(c1C)C(c1ccc(Cl)cc1)=N[C@@H](CC(=O)OC(C)(C)C)c1nnc(C)n1-2 [NCGC00250412-19]	-333
O=C(N[C@@H](COc1ccc2[nH]c(=O)[nH]c2c1)c1ccccc1)c1cccn(Cc2ccc(F)c(F)c2)c1=O + Cc1sc2c(c1C)C(c1ccc(Cl)cc1)=N[C@@H](CC(=O)OC(C)(C)C)c1nnc(C)n1-2 [NCGC00250412-19]	-158
C[C@@](Cc1ccc(O)c(O)c1)(NN)C(=O)O + Cc1sc2c(c1C)C(c1ccc(Cl)cc1)=N[C@@H](CC(=O)OC(C)(C)C)c1nnc(C)n1-2 [NCGC00250412-19]	12
Nc1ncnc2c1ncn2[C@@H]1O[C@H](CO)[C@@H](O)[C@@H]1O + Cc1sc2c(c1C)C(c1ccc(Cl)cc1)=N[C@@H](CC(=O)OC(C)(C)C)c1nnc(C)n1-2 [NCGC00250412-19]	-96.1
CCCN1CCOC2c3cc(O)ccc3OCC21 (stereo not given) + Cc1sc2c(c1C)C(c1ccc(Cl)cc1)=N[C@@H](CC(=O)OC(C)(C)C)c1nnc(C)n1-2 [NCGC00250412-19]	11
O=C1CC[C@@]2(O)[C@H]3Cc4ccc(O)c5c4[C@@]2(CCN3CC2CC2)[C@H]1O5 + Cc1sc2c(c1C)C(c1ccc(Cl)cc1)=N[C@@H](CC(=O)OC(C)(C)C)c1nnc(C)n1-2 [NCGC00250412-19]	14.6
CC(C)c1ccccc1Cc1cc(C(=O)Nc2ccc(S(=O)(=O)c3ccccc3C(C)(C)C)cc2)c(O)c(O)c1O + Cc1sc2c(c1C)C(c1ccc(Cl)cc1)=N[C@@H](CC(=O)OC(C)(C)C)c1nnc(C)n1-2 [NCGC00250412-19]	-282
O=C(O)CCc1ccc(NCc2cccc(Oc3ccccc3)c2)cc1 + Cc1sc2c(c1C)C(c1ccc(Cl)cc1)=N[C@@H](CC(=O)OC(C)(C)C)c1nnc(C)n1-2 [NCGC00250412-19]	-84
Cc1cc2nc3c(=O)[nH]c(=O)nc-3n(C[C@H](O)[C@H](O)[C@H](O)CO)c2cc1C + Cc1sc2c(c1C)C(c1ccc(Cl)cc1)=N[C@@H](CC(=O)OC(C)(C)C)c1nnc(C)n1-2 [NCGC00250412-19]	52.8
CCCOc1ccc2[nH]c(NC(=O)OC)nc2c1 + Cc1sc2c(c1C)C(c1ccc(Cl)cc1)=N[C@@H](CC(=O)OC(C)(C)C)c1nnc(C)n1-2 [NCGC00250412-19]	-107
CC(C)(C)c1cc(C=C(C#N)C#N)cc(Br)c1O + Cc1sc2c(c1C)C(c1ccc(Cl)cc1)=N[C@@H](CC(=O)OC(C)(C)C)c1nnc(C)n1-2 [NCGC00250412-19]	66.7
CC(=O)OCCN1C(=O)c2c(C)nc3ccc(S(=O)(=O)N4CCOCC4)cc3c2C1=O + Cc1sc2c(c1C)C(c1ccc(Cl)cc1)=N[C@@H](CC(=O)OC(C)(C)C)c1nnc(C)n1-2 [NCGC00250412-19]	-159
CCS(=O)(=O)N1CC(CC#N)(n2cc(-c3ncnc4[nH]ccc34)cn2)C1 + Cc1sc2c(c1C)C(c1ccc(Cl)cc1)=N[C@@H](CC(=O)OC(C)(C)C)c1nnc(C)n1-2 [NCGC00250412-19]	16.4
Nc1nc(NCCNc2ncc(-n3ccnc3)c(-c3ccc(Cl)cc3Cl)n2)ccc1[N+](=O)[O-] + Cc1sc2c(c1C)C(c1ccc(Cl)cc1)=N[C@@H](CC(=O)OC(C)(C)C)c1nnc(C)n1-2 [NCGC00250412-19]	4.27
CC(C)[C@]12O[C@H]1[C@@H]1O[C@]13[C@]1(O[C@H]1C[C@H]1C4=C(CC[C@@]13C)C(=O)OC4)[C@@H]2O + Cc1sc2c(c1C)C(c1ccc(Cl)cc1)=N[C@@H](CC(=O)OC(C)(C)C)c1nnc(C)n1-2 [NCGC00250412-19]	-197
Nc1nccc(Oc2ccc(NC(=O)c3c[nH]cc(-c4ccc(F)cc4)c3=O)cc2F)c1Cl + Cc1sc2c(c1C)C(c1ccc(Cl)cc1)=N[C@@H](CC(=O)OC(C)(C)C)c1nnc(C)n1-2 [NCGC00250412-19]	62.6
COc1cccc2c(NCc3ccccc3)nc(-n3c(N)nc4ccccc43)nc12 + Cc1sc2c(c1C)C(c1ccc(Cl)cc1)=N[C@@H](CC(=O)OC(C)(C)C)c1nnc(C)n1-2 [NCGC00250412-19]	-82.6
NC(=O)Nc1cc(-c2cccc(F)c2)sc1C(=O)N[C@H]1CCCNC1 + Cc1sc2c(c1C)C(c1ccc(Cl)cc1)=N[C@@H](CC(=O)OC(C)(C)C)c1nnc(C)n1-2 [NCGC00250412-19]	1.35

Rewritten as labelled records: part of the list above
Nc1ncnc2c1ncn2[C@@H]1O[C@H](CO)[C@@H](O)[C@@H]1O + Cc1sc2c(c1C)C(c1ccc(Cl)cc1)=N[C@@H](CC(=O)OC(C)(C)C)c1nnc(C)n1-2 [NCGC00250412-19]
  excess over highest single agent: -96.1
CCCN1CCOC2c3cc(O)ccc3OCC21 (stereo not given) + Cc1sc2c(c1C)C(c1ccc(Cl)cc1)=N[C@@H](CC(=O)OC(C)(C)C)c1nnc(C)n1-2 [NCGC00250412-19]
  excess over highest single agent: 11
